PubChem BioAssay AID504808 | Drosophila RNAi Screening Center | 2011
In all, the deposit lists about 21,000 reagents; below is a random part of those that have a named target and a result. Over the whole deposit, 18 (0.084%) were called active. 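Raw counts without plate normalisation, one of two replicates; the ratio scores behind the calls were not deposited.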 A number with no mark means an inactive call. Names joined by + are all predicted targets of the reagent. No sequences are given here. The record does not give: the amount of reagent, the time to read-out.

Purpose: 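Genes whose loss lifts activity of an E2F-responsive reporter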 (primary screen)
Cells: Drosophila S2 cells
Reagents: long dsRNA against Drosophila genes
Read-out: 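Dual luciferase plate measurements; E2F-specific signal taken as firefly over Renilla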
Direction: E2F firefly: higher = more E2F reporter activity; Renilla normaliser: higher = more normaliser reporter signal
Active means: 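a knock-down counted as active when the firefly/Renilla E2F signal rose above 50%, a threshold chosen arbitrarily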

gene knocked down | amplicon | E2F firefly, rep 1 | Renilla normaliser, rep 1
CG1637 | DRSC18865 | 82219 | 2449
CG1637 | DRSC19748 | 8204 | 708
CG1637 | DRSC19749 | 1.29e5 | 5896
CG31871 | DRSC02567 | 1.50e5 | 4978
CG31871 | DRSC02571 | 1.75e5 | 5186
CG9459 | DRSC16496 | 1.39e5 | 6430
CG8907 | DRSC16453 | 61008 | 3639
CG33125 | DRSC00145 | 1.35e5 | 5277
CG8170 | DRSC07087 | 1.40e5 | 5278
CG18130 | DRSC19790 | 1.34e5 | 5701
Vps52 | DRSC03050 | 1.51e5 | 4933
Achl | DRSC06665 | 98951 | 4088
CG7058 | DRSC20021 | 1.36e5 | 5472
Baldspot | DRSC09671 | 1.50e5 | 8142
CG2127 | DRSC06821 | 1.33e5 | 5075
GV1 | DRSC08228 | 1.05e5 | 4712
mkg-p + Tpt | DRSC10777 | 81992 | 3162
CG14810 | DRSC17693 | 79888 | 2575
CG14810 | DRSC17961 | 1.10e5 | 4848
nab | DRSC08455 | 91647 | 4561
nab | DRSC08456 | 1.09e5 | 4335
CG13442 | DRSC06402 | 1.08e5 | 4733
CG14538 (retired record) | DRSC02396 | 1.60e5 | 5078
CG5131 | DRSC02817 | 1.03e5 | 4416
Dcr-1 | DRSC15646 | 55085 | 3085
mAChR-B | DRSC16345 | 1.27e5 | 6964
Cyp4ac2 | DRSC03303 | 1.54e5 | 5344
Fit2 | DRSC10908 | 77243 | 3423
Lpin | DRSC07241 | 2824 | 217
CG13532 | DRSC04174 | 99476 | 4320
CG14731 | DRSC14952 | 1.38e5 | 5566
Rpn9 | DRSC16840 | 66845 | 3518
SAK | DRSC11879 | 1.44e5 | 6705
lectin-21Cb | DRSC00355 | 1.75e5 | 6756
nyo | DRSC15029 | 44852 | 3509
nyo | DRSC15030 | 44096 | 3979
CG17230 | DRSC15203 | 67279 | 2935
CG3817 | DRSC15515 | 65658 | 3351
CG8128 | DRSC20084 | 8567 | 780
Kaz | DRSC14637 | 1.08e5 | 5244
TyrRII | DRSC15150 | 1.18e5 | 7676
mIF2 | DRSC14510 | 1.04e5 | 5555
Lrr47 | DRSC03365 | 64218 | 3449
Trmt6 | DRSC03272 | 1.41e5 | 5766
THADA | DRSC19675 | 1.62e5 | 6058
Gcna | DRSC18553 | 2046 | 940
ema | DRSC14536 | 1.15e5 | 6363
tutl | DRSC00441 | 1.43e5 | 4981
tutl | DRSC00442 | 1.45e5 | 4932
tutl | DRSC00443 | 1.27e5 | 4991
CG14257 | DRSC14752 | 1.22e5 | 5950
norpA | DRSC18806 | 1983 | 860
PolE1 | DRSC16112 | 81527 | 5550
CG15080 | DRSC06511 | 1.34e5 | 4474
CG9932 | DRSC03275 | 89873 | 4047
sky | DRSC02383 | 78415 | 3419
sky | DRSC03214 | 69977 | 3463
sky | DRSC03215 | 92032 | 4250
mRpS10 | DRSC15557 | 1.09e5 | 5878
Prosbeta5 | DRSC07517 | 1.08e5 | 5455
CG12659 | DRSC17862 | 99244 | 4942
CG15597 | DRSC12283 | 1.28e5 | 6231
CG1738 | DRSC19772 | 97006 | 5656
CG32652 (retired record) | DRSC18942 | 80804 | 2888
Frq1 | DRSC19961 | 2.55e5 | 7260
CG10979 | DRSC12153 | 1.51e5 | 6793
rpk | DRSC12386 | 85085 | 3373
VhaM9.7-b | DRSC11841 | 1.35e5 | 7059
HUWE1 | DRSC20089 | 1.87e5 | 7270
robl62A | DRSC08153 | 93535 | 4152
Zw | DRSC20303 | 1.52e5 | 5239
Prat | DRSC16797 | 82377 | 3467
Got1 | DRSC07177 | 65813 | 3329
Gip | DRSC18667 | 50430 | 3507
CG1275 | DRSC08294 | 81807 | 3970
bw | DRSC04005 | 1.45e5 | 5211
bw | DRSC04677 | 72741 | 3376
CG15196 | DRSC19643 | 1.25e5 | 6277
Cpr65Av | DRSC09727 | 97145 | 3555
CG14818 | DRSC18548 | 94505 | 5143
tadr | DRSC03177 | 83689 | 2950
B-H1 | DRSC19334 | 1.42e5 | 5515
CG5335 | DRSC06931 | 82088 | 3676
wal | DRSC07717 | 3065 | 220
